Amino acid sequences for entries named in this document (tags omitted).
UniProt P07355: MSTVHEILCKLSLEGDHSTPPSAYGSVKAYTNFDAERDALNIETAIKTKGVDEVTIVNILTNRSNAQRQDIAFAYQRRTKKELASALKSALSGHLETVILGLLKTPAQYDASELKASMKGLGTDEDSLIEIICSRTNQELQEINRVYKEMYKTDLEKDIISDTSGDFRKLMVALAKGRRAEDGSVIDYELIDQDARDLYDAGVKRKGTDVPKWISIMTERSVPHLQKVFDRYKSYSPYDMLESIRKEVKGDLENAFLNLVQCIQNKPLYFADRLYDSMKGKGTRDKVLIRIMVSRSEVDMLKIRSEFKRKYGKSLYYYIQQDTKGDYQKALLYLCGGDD
UniProt P16949: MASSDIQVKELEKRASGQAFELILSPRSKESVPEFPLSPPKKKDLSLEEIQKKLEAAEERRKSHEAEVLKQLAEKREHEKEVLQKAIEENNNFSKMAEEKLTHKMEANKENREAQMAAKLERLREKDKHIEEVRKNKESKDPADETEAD
UniProt Q9Y266: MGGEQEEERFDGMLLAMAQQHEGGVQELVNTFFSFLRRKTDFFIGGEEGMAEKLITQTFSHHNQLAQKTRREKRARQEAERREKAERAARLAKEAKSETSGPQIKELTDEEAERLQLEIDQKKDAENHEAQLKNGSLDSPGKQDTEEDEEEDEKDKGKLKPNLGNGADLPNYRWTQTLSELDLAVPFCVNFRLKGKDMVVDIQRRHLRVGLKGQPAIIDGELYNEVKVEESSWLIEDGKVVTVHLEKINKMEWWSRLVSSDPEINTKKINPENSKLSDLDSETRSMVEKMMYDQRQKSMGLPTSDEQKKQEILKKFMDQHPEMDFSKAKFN
UniProt Q92608: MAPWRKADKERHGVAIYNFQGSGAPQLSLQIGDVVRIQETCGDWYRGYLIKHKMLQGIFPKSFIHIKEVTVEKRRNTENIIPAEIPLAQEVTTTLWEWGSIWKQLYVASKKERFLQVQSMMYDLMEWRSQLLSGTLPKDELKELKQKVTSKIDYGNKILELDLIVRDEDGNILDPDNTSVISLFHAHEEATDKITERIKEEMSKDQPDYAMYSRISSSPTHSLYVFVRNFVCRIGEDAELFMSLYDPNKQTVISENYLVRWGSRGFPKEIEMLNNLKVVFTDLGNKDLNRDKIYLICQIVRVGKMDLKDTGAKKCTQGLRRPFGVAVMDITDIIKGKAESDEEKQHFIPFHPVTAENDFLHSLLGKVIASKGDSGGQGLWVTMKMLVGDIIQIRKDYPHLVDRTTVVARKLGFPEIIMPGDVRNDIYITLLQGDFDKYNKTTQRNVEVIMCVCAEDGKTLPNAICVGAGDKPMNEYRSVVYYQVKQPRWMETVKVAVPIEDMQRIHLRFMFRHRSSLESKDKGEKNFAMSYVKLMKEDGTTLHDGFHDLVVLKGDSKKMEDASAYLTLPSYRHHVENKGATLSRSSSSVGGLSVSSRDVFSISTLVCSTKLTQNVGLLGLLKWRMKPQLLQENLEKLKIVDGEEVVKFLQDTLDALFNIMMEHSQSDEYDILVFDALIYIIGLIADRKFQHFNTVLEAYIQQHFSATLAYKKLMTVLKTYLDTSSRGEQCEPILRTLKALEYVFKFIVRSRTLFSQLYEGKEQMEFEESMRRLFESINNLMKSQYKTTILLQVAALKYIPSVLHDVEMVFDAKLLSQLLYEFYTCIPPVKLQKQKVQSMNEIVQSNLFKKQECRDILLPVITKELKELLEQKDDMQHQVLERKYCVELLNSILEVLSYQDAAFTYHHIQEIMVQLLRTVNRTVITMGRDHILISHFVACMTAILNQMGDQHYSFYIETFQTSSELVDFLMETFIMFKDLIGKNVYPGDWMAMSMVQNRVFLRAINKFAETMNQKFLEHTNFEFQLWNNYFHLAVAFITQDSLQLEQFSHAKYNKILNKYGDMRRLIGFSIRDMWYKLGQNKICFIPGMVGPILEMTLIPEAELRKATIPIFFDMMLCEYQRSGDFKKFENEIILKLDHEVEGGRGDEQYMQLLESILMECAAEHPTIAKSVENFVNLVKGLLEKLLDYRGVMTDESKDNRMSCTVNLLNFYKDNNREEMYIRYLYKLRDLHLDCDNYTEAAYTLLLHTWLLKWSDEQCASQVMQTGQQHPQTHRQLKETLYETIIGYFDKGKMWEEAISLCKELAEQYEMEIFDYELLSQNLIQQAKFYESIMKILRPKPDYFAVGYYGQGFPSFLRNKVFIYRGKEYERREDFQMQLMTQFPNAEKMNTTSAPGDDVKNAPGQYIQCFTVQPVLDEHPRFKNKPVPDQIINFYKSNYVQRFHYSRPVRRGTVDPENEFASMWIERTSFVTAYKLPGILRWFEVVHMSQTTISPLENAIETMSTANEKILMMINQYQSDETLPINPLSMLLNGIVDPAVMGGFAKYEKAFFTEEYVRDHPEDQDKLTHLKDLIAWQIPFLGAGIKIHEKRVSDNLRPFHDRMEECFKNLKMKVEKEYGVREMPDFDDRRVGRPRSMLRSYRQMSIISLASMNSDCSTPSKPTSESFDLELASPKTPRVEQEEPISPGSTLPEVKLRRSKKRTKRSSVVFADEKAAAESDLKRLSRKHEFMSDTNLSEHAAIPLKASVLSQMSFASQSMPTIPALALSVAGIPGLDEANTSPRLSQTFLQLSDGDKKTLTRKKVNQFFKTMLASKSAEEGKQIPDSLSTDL
UniProt P27816: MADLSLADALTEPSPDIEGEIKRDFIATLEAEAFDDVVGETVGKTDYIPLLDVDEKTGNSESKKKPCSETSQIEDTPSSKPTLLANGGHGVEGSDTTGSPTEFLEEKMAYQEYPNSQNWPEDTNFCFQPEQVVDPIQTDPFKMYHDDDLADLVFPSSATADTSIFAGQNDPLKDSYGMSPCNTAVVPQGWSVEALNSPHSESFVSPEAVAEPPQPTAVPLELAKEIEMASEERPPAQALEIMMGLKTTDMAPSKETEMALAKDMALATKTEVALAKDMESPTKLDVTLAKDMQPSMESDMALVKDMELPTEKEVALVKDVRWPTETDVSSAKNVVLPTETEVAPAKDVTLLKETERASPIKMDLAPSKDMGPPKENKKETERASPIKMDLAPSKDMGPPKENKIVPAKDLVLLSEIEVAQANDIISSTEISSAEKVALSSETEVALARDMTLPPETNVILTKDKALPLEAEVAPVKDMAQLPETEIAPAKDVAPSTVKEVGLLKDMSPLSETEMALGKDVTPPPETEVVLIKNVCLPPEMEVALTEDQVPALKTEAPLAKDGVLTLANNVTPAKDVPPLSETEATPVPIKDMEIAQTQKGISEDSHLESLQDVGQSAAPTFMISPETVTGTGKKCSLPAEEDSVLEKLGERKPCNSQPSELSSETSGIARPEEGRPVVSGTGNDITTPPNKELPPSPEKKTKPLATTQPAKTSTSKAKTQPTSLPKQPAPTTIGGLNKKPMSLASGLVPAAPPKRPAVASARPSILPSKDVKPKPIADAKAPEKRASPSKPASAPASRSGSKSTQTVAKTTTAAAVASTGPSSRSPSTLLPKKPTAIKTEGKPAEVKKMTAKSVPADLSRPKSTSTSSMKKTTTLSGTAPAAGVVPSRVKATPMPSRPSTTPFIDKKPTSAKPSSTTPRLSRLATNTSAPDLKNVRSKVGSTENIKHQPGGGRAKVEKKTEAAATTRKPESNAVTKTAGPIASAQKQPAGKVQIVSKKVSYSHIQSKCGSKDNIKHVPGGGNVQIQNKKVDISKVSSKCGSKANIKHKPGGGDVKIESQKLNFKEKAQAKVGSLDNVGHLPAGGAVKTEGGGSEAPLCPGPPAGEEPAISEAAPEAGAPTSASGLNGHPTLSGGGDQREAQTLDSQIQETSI
UniProt P36873: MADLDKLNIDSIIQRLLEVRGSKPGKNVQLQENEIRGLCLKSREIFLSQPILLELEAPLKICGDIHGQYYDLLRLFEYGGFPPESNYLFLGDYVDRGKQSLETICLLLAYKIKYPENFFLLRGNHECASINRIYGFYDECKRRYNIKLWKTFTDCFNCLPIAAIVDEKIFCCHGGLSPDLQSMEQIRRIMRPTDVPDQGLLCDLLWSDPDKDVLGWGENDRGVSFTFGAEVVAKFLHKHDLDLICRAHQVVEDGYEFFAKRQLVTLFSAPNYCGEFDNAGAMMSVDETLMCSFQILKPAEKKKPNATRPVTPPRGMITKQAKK
UniProt O14641: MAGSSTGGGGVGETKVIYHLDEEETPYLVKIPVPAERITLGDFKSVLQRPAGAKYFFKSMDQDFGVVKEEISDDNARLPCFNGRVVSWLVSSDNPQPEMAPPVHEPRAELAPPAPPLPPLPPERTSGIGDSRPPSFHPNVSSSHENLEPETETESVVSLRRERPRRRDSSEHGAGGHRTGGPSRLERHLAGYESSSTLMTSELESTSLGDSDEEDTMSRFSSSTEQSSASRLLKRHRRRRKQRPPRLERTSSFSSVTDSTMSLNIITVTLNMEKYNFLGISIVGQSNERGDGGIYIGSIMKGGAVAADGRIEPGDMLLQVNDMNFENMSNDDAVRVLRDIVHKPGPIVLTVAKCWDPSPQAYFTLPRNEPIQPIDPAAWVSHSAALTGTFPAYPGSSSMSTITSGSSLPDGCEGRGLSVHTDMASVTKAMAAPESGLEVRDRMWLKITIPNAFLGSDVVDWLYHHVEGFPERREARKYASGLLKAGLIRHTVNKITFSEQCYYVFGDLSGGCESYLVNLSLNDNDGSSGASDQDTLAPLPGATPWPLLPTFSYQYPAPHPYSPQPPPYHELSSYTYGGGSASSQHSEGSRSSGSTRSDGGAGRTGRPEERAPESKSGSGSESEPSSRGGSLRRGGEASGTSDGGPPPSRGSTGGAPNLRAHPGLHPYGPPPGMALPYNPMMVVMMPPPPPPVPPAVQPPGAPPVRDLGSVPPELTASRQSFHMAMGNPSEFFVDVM

In PMC7005177:

B1: STMN2 (protein, UniProt Q93045 1-179)
chain: MAKTAMAYKEKMKELSMLSLICSCFYPEPRNINIYTYDDMEVKQINKRASGQAFELILKPPSPISEAPRTLASPKKKDLSLEEIQKKLEAAEERRKSQEAQVLKQLAEKREHEREVLQKALEENNNFSKMAEEKLILKMEQIKENREANLAAIIERLQEKERHAAEVRRNKELQVELSG
B2: FKBP4 (protein, UniProt Q02790 1-459)
chain: MTAEEMKATESGAQSAPLPMEGVDISPKQDEGVLKVIKREGTGTEMPMIGDRVFVHYTGWLLDGTKFDSSLDRKDKFSFDLGKGEVIKAWDIAIATMKVGEVCHITCKPEYAYGSAGSPPKIPPNATLVFEVELFEFKGEDLTEEEDGGIIRRIQTRGEGYAKPNEGAIVEVALEGYYKDKLFDQRELRFEIGEGENLDLPYGLERAIQRMEKGEHSIVYLKPSYAFGSVGKEKFQIPPNAELKYELHLKSFEKAKESWEMNSEEKLEQSTIVKERGTVYFKEGKYKQALLQYKKIVSWLEYESSFSNEEAQKAQALRLASHLNLAMCHLKLQAFSAAIESCNKALELDSNNEKGLFRRGEAHLAVNDFELARADFQKVLQLYPNNKAAKTQLAVCQQRIRRQLAREKKLYANMFERLAEEENKAKAEASSGDHPTDTEMKEEQKSNTAGSQSQVETEA

Target: T1, RASSF2-BioID2 (Ras-association domain family member 2 with BioID2 fused to its C-terminus through a linker peptide) (not stated (human or mouse cDNA cloned)) (UniProt P50749)
T1 sequence: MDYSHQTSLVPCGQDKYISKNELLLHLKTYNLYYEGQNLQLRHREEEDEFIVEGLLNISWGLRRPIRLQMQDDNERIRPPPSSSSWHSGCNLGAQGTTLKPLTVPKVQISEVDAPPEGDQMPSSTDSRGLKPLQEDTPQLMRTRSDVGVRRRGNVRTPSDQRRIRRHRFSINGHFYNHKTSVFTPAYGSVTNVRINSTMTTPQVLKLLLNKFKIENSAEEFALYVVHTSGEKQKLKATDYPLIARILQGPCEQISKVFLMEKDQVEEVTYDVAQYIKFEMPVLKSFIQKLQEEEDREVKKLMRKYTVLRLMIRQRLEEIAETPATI
Assay: proximity labelling; BioID2: Kasumi-1 cells stably expressing RASSF2-BioID2 or Control-BioID2, 50 uM biotin for 48 h, lysis, streptavidin-conjugated beads, stringent washing, mass spectrometry; filtered on the CRAPome; three independent replicates

binding, binds:
ANXA2 (from UniProt P07355 1-339)
STMN1 (from UniProt P16949 1-149)
NUDC (from UniProt Q9Y266 1-331)
DOCK2, Rac1/2-specific atypical guanine nucleotide exchange factor, endogenous in Kasumi-1 cells (from UniProt Q92608 1-1830)
MAP4 (from UniProt P27816 1-1152)
PPP1CC (from UniProt P36873 1-323)
DVL2 (from UniProt O14641 1-736)
B1
B2

No constants are given. Whether binding was seen depends on the method and setting. Binding seen in cells or lysates may run through a third protein. These calls come from enrichment with a bait or labelling near it, and not all partners need be listed. Sequences can lack the tags named with a protein.
